{"sequences": {"note": "By UniProt entry, the sequences of proteins in these tests, tags left out. Residues count along the entry.", "UniProt P21860, residues 20-643": "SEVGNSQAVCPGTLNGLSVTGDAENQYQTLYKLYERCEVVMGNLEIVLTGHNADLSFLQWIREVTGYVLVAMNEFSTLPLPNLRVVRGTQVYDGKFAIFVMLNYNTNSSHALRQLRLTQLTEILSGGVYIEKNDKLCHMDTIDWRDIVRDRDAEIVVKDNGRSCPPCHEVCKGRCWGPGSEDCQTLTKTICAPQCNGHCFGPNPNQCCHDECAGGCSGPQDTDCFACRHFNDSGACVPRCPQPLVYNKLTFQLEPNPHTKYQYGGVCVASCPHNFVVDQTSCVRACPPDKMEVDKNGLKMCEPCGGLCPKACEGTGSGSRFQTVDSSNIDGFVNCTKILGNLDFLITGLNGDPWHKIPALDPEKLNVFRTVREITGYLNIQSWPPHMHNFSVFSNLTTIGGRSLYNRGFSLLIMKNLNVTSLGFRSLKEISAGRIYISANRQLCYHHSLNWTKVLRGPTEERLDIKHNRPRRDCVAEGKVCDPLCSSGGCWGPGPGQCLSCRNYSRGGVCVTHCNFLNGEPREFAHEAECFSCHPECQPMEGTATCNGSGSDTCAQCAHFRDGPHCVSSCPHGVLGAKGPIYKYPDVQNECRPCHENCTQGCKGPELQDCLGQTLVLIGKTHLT"}, "source": "patent US20260184811A1", "about": "(CEREIUS, published 2026)", "binders": {"B1": {"name": "VHH_108 (VHH)", "VHH": "QVQLVESGGGLVQAGGSLRLSCAASGRTFSSYAMGWFRQAPGLEREFVAAIARGGVSTGYADSVKGRFAISRDNAKNMVYLQMNSLKPEDTAVYYCATYFWGSPHYWGQGTQVTVSS", "notes": "also called VHH ID 108"}, "B2": {"name": "VHH_130 (VHH)", "VHH": "EVQLVESGGGLVQAGGSLRLSCAASGITFSINTMGWYRQAPGKQRELVALISSIGDTYYADSVRGRFTISRDNAKNTVYLQMNSLKPEDTAVYYCRRFRTAAQGTDYWGQGTQVTVSS", "notes": "also called VHH ID 130"}}, "key": {"[1]": {"biological_target": "human HER2 receptor (human, UniProt P04626)", "experiment": "ELISA on human HER2 receptor, purified VHH titrated, A450"}, "[2]": {"biological_target": "T1, hHER4-Fc (human) (UniProt Q15303)", "T1 sequence (receptor-Fc fusion, looked up)": "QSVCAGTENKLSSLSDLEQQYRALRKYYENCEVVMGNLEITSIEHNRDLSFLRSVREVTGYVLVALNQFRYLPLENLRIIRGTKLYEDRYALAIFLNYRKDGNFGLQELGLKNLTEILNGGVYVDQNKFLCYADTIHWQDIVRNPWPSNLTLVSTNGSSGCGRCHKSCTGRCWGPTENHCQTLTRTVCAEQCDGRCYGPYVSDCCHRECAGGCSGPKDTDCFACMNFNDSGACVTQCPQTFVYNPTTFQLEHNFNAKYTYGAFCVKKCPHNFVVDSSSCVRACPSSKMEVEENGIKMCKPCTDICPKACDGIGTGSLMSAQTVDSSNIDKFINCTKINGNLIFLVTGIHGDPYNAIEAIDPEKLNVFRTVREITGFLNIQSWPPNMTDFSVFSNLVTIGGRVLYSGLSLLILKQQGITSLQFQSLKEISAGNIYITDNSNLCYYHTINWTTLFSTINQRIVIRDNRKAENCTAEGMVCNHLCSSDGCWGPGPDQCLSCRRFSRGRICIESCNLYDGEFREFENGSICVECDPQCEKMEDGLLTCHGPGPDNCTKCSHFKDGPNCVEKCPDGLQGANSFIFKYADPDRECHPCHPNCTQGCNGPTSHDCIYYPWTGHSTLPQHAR", "experiment": "ELISA specificity panel on ErbB family receptors, VHH titrated, A450"}, "[3]": {"biological_target": "hEGFR (ECD)", "experiment": "ELISA specificity panel on ErbB family receptors, VHH titrated, A450"}, "[4]": {"biological_target": "hHER3-Fc (human) (UniProt P21860)", "experiment": "ELISA specificity panel on ErbB family receptors, VHH titrated, A450"}}, "note": "No constants are given. Whether binding was seen depends on the method and setting. Some binding calls cover weakened binding; strength is not graded here. For some of these results: Tags and fused reporters may be left off the sequences shown."}
{"binder": "B1", "values": [{"measurement": "binding", "setting": "[1]", "value": "binds"}]}
{"binder": "B2", "values": [{"measurement": "binding", "setting": "[2]", "value": "no binding (tested: 10000 nM)"}, {"measurement": "binding", "setting": "[3]", "value": "no binding (tested: 10000 nM)"}, {"measurement": "binding", "setting": "[4]", "value": "no binding (tested: 10000 nM)"}]}
